# According to patent publication US7150880B2, “Compositions containing creatine and creatinine and a methyl xanthine” (The Original Creatine Patent Co. Ltd., priority 1996, dated 2006):
# At least one compound was matched to its structure with a doubt left.
# Assay: Mole:mole creatinine to creatine ratios required for stability at 2, 22 and 39° C. over pH 3.8 to 8.25 (Example 5)
# Conditions: 500 ml drink with 5 g creatine monohydrate
smiles,measurement,setting,value
"CN1CC(=O)NC1=N [Creatinine, creatinine]",Creatinine g/500 ml,"pH 4.0, 22° C.",23.5 g/500 ml
same,Creatinine g/500 ml,"pH 4.25, 22° C.",14.4 g/500 ml
same,Creatinine g/500 ml,"pH 4.5, 22° C.",9.3 g/500 ml
same,Creatinine g/500 ml,"pH 4.75, 22° C.",6.4 g/500 ml
same,Creatinine g/500 ml,"pH 5.0, 22° C.",4.6 g/500 ml
same,Creatinine g/500 ml,"pH 5.25, 22° C.",3.6 g/500 ml
same,Creatinine g/500 ml,"pH 5.5, 22° C.",3.0 g/500 ml
same,Creatinine g/500 ml,"pH 5.75, 22° C.",2.7 g/500 ml
same,Creatinine g/500 ml,"pH 6.0, 22° C.",2.4 g/500 ml
same,Creatinine g/500 ml,"pH 6.25, 22° C.",2.2 g/500 ml
same,Creatinine g/500 ml,"pH 6.5, 22° C.",2.1 g/500 ml
same,Creatinine g/500 ml,"pH 6.75, 22° C.",1.9 g/500 ml
same,Creatinine g/500 ml,"pH 7.0, 22° C.",1.8 g/500 ml
same,Creatinine g/500 ml,"pH 7.25, 22° C.",1.7 g/500 ml
